Test results published in patent publication US12528944B2, “Live-cell fluorescent mitochondrial stains” (HOWARD HUGHES MEDICAL INSTITUTE, priority 2022, dated 2026).
Some of these results come from one statement about several compounds together.

What was measured:
[1] = In vitro photobleaching measurements; format: physicochemical; conditions: 5 μM in 10 mM HEPES, pH 7.3
[2] = Chemical stability (iminium hydrolysis) by LC-MS; format: physicochemical; conditions: 100 μM, PBS pH 7.4, 48 h, absence of light
Method: Measurement of chemical stability and photostability by tandem high-pressure liquid chromatography-mass spectrometry (LC-MS; FIG. 3A-D, FIG. 4A-4D, FIG. 6, FIG. 10). To examine the chemical stability and photostability of the DAB dyes, samples were assessed by tandem high-pressure liquid chromatography-mass spectrometry (LC-MS) using an Agilent 1200 LC-MS system equipped with an autosampler, diode array detector, and mass spectrometry detector (ESI; positive ion mode) using a 4.6×150 mm Gemini NX-C18 column with a 5-95% or 5-50% gradient of CH3CN in H2O containing constant 0.1% (v/v) TFA. Chromatograms were monitored using absorbance at 254 nm or 400 nm. To investigate chemical hydrolysis, solutions of 8, 11, and 13-15 (100 μM) were prepared in PBS, pH 7.4. An aliquot of this freshly prepared solution was immediately analyzed by LC-MS (t=0). The solution was then incubated at ambient temperature protected from light for 48 h and analyzed again by LC-MS (t=48 h). Standard samples of coumarins 6, 10, and 12 (100 μM, PBS) were analyzed in the same manner. To compare the stability of compounds 15 and 20 under different conditions, solutions of each dye (25 μM) in citrate buffer, pH 5, PBS, pH 7.4, or Tris buffer, pH 9 were prepared in an autosampler vial and the sample was analyzed using the LC-MS instrumentation every 30 min. The autosampler chamber in this LC-MS system is not temperature controlled and the higher rates of hydrolysis measured using this method reflect incubation of the solutions at higher-than-ambient temperature.

[3] = UV-vis and fluorescence spectroscopy; conditions: PBS, pH 7.4, 1% v/v DMSO

| SMILES | photobleaching time constant (tb) relative to parent coumarin [1] | stability of iminium linkage (hydrolysis) [2] | concentration range with linear relationship between absorption and concentration [3] |
| --- | --- | --- | --- |
| CC[N+](CC)=c1cc(C)c2cc3c4c(c2o1)CCCN4CCC3.O=C([O-])C(F)(F)F [Compound 13, N-ethyl-N-(9-methyl-2,3,6,7-tetrahydro-1H,5H,11H-pyrano[2,3-f]pyrido[3,2,1-ij]quinolin-11-ylidene)ethanaminium trifluoroacetate] | five-fold higher | excellent stability with minimal iminium hydrolysis | – |
| Cc1cc(=[N+]2CCCCC2)oc2c3c4c(cc12)CCCN4CCC3.O=C([O-])C(F)(F)F [Compound 15, 1-(9-methyl-2,3,6,7-tetrahydro-1H,5H,11H-pyrano[2,3-f]pyrido[3,2,1-ij]quinolin-11-ylidene)piperidin-1-ium trifluoroacetate] | five-fold higher | excellent stability with minimal iminium hydrolysis | ≤ 20 µM |
| Cc1cc(=[N+]2CCC2)oc2c3c4c(cc12)CCCN4CCC3.O=C([O-])C(F)(F)F [Compound 14, 1-(9-methyl-2,3,6,7-tetrahydro-1H,5H,11H-pyrano[2,3-f]pyrido[3,2,1-ij]quinolin-11-ylidene)azetidin-1-ium trifluoroacetate] | five-fold higher | excellent stability with minimal iminium hydrolysis | – |
| Cc1cc(=[N+]2CCC(CCCC3CC[N+](=c4cc(C)c5cc6c7c(c5o4)CCCN7CCC6)CC3)CC2)oc2c3c4c(cc12)CCCN4CCC3.O=C([O-])C(F)(F)F.O=C([O-])C(F)(F)F (centres unmarked) [Compound 20, 4,4′-(propane-1,3-diyl)bis(1-(9-methyl-2,3,6,7-tetrahydro-1H,5H,11H-pyrano[2,3-f]pyrido[3,2,1-ij]quinolin-11-ylidene)piperidin-1-ium) trifluoroacetate] | – | – | ≤ 20 µM |
